Source: paper PMC7581431
Results are given in words; binding and its absence hold for the method and conditions named. Binding seen in cells or lysates may run through a third protein. A yes stands for co-enrichment or nearness to the bait. Other partners may have been found.

Amino acid sequences for entries named in this document (tags omitted). Residues count along the entry.
UniProt O14641: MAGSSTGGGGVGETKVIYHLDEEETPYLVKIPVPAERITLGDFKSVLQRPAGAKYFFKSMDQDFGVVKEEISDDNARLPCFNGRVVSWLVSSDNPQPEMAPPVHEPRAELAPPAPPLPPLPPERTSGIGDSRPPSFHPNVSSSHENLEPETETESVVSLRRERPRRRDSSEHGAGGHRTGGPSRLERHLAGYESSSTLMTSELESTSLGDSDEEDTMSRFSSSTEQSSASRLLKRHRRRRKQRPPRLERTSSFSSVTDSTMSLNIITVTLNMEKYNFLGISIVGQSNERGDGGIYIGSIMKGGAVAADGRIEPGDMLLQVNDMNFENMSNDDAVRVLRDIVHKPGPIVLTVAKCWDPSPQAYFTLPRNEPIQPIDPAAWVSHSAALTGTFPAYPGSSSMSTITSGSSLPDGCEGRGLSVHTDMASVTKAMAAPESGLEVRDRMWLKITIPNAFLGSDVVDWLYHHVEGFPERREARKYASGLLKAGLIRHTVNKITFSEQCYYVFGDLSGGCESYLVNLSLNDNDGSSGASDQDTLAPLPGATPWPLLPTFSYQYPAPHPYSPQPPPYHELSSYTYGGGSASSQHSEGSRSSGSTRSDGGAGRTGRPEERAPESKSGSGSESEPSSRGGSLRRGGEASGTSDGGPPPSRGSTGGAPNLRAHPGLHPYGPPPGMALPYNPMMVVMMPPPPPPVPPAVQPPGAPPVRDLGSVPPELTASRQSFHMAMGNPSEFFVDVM
UniProt P35222: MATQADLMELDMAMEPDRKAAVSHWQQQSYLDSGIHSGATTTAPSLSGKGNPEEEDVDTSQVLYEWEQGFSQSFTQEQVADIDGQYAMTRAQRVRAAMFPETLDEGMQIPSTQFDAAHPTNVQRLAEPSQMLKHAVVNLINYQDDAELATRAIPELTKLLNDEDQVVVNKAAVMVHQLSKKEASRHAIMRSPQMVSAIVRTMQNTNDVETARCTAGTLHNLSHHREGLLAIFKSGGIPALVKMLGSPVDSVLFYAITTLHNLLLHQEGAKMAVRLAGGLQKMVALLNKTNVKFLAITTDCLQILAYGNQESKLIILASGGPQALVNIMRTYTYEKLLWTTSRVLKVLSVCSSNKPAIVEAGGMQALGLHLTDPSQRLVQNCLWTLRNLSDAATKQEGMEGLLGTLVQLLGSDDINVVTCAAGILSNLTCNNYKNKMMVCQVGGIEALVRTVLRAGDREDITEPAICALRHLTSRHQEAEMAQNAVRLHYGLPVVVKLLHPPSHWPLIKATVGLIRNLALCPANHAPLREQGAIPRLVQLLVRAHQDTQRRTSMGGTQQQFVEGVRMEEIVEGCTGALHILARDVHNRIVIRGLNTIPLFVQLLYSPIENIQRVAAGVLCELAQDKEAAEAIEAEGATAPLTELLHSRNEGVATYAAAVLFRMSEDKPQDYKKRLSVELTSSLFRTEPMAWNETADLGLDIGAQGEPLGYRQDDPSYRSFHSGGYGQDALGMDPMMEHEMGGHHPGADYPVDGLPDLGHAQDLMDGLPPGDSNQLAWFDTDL
UniProt O75197, residues 32-1615: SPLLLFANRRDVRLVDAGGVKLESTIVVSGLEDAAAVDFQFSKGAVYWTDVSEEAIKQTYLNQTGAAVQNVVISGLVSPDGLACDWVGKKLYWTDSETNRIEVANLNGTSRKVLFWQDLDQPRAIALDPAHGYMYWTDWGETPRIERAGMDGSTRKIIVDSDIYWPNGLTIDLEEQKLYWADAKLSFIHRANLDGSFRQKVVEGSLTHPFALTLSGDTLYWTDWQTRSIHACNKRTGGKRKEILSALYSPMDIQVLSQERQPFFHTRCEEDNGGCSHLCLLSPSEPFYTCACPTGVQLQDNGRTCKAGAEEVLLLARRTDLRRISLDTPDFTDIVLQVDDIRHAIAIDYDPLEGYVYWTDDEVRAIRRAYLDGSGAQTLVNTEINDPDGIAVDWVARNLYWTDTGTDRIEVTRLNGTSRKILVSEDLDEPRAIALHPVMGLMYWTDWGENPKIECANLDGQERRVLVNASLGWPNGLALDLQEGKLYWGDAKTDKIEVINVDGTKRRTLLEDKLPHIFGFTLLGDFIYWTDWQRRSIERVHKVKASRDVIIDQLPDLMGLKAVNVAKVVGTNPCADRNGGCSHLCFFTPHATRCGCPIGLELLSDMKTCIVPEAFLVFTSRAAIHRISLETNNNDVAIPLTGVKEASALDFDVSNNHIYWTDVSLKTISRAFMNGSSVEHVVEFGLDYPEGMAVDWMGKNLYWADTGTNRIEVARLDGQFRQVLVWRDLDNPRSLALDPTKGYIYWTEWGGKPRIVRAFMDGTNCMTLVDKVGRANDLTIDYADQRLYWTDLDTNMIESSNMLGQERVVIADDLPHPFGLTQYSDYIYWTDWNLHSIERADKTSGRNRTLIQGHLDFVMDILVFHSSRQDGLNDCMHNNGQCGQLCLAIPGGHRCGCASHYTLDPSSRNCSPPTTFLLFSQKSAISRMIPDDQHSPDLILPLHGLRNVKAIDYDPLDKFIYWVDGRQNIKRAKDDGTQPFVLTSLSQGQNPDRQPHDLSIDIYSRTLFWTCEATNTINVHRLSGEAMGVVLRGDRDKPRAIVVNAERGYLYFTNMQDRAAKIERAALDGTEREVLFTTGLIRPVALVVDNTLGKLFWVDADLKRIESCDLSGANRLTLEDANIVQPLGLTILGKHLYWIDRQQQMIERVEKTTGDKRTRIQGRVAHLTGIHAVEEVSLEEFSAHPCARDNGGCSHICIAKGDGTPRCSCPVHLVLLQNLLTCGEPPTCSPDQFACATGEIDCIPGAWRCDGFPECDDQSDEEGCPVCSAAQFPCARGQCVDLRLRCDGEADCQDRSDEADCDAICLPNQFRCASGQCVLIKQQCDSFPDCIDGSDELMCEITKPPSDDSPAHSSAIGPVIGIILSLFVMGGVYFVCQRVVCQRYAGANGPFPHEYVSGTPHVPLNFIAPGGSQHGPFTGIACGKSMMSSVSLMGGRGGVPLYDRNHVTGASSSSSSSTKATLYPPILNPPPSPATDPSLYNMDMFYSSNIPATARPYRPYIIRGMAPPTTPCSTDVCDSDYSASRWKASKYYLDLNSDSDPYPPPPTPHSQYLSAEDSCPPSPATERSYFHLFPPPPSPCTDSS
UniProt Q01974, residues 34-943: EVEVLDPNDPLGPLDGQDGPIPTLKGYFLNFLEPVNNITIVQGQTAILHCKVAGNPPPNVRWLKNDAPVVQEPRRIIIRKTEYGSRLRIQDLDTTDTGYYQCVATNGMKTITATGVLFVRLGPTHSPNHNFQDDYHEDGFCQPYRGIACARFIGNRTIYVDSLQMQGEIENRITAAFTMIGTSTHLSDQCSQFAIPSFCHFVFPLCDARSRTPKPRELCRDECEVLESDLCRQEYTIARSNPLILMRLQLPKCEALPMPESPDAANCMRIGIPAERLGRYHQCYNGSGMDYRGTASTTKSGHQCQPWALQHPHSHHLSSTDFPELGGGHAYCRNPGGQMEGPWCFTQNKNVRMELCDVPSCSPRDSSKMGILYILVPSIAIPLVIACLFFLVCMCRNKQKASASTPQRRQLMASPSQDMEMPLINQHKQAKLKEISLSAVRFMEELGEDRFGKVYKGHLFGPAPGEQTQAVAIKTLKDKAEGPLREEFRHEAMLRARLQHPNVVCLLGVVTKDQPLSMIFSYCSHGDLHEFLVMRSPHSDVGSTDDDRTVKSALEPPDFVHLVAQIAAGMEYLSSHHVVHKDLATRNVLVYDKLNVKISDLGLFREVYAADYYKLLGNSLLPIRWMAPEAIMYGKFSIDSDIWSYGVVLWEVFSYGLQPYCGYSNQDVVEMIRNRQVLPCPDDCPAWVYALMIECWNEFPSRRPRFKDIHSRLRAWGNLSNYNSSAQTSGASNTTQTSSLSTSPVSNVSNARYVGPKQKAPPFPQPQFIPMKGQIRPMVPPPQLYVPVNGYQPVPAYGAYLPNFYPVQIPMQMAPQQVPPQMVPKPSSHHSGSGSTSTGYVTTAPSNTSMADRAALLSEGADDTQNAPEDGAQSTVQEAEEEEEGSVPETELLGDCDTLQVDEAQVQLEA
UniProt P46531, residues 19-2555: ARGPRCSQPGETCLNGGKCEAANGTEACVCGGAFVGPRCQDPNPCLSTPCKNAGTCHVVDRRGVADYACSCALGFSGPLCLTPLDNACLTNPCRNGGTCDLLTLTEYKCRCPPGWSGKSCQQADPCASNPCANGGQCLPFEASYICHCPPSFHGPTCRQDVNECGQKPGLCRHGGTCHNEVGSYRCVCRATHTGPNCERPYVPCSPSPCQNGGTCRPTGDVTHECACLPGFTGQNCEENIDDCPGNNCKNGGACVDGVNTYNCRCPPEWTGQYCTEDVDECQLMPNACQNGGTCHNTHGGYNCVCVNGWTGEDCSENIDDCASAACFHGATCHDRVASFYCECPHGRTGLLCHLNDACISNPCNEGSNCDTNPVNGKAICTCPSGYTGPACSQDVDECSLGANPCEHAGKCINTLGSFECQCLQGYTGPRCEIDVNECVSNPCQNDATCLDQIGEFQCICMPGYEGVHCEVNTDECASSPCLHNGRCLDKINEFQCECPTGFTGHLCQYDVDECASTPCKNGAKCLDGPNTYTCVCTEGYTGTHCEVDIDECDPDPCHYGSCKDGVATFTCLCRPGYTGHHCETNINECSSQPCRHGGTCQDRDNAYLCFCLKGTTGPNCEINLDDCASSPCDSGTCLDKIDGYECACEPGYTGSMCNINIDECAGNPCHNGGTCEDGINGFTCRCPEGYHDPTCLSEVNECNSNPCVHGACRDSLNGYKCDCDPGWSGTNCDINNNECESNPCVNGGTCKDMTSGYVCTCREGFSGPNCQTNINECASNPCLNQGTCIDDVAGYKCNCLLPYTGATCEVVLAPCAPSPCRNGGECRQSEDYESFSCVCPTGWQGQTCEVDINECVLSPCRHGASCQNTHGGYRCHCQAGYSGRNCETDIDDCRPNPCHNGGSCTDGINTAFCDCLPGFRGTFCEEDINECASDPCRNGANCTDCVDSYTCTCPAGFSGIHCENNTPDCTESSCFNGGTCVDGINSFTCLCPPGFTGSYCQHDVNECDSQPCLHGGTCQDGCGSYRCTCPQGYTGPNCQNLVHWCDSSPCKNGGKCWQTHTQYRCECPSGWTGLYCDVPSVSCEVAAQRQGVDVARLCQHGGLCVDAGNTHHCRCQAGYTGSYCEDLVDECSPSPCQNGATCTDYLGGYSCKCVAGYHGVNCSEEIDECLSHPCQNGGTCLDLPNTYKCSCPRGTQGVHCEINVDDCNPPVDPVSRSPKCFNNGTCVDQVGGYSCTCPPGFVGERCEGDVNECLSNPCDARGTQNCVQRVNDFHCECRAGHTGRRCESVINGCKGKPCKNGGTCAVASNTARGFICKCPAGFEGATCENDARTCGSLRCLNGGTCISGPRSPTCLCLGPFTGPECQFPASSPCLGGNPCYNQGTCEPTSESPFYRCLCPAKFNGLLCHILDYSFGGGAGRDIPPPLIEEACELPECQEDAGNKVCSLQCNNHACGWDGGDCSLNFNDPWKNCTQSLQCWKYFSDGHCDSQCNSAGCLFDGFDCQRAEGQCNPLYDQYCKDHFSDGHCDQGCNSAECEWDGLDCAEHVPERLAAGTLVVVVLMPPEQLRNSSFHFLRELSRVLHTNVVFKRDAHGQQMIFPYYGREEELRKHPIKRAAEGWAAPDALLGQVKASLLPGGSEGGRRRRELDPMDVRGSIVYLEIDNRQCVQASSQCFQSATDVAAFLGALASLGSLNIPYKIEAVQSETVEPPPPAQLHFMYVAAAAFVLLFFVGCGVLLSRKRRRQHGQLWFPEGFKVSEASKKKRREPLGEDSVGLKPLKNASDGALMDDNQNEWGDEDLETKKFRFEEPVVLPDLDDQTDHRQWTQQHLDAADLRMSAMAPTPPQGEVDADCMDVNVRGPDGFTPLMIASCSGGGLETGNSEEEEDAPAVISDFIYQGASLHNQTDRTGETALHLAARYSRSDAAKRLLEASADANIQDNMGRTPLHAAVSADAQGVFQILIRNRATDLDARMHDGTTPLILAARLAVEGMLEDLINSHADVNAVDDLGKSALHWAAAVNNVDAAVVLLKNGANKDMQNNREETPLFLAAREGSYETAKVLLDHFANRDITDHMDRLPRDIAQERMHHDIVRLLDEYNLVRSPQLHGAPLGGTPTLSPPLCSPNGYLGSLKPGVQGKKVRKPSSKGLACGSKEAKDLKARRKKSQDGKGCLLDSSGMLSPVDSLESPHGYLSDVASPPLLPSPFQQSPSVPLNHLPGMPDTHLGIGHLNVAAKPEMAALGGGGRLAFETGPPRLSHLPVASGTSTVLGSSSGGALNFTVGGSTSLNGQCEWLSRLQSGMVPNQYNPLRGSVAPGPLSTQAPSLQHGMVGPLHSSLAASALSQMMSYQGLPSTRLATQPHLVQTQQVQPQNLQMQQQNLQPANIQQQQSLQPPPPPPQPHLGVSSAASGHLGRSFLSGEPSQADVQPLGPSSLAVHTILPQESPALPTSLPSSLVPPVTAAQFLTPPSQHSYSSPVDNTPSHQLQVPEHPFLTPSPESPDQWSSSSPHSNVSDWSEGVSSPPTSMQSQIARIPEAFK

Each substance was assayed against T1, Nkd1-BirA* (murine) (UniProt Q99MH6) (assay: proximity labelling; BioIP: BioID streptavidin pull-down from cells with stably integrated baits, analysed by SDS-PAGE and blot for endogenous p62).
T1 sequence: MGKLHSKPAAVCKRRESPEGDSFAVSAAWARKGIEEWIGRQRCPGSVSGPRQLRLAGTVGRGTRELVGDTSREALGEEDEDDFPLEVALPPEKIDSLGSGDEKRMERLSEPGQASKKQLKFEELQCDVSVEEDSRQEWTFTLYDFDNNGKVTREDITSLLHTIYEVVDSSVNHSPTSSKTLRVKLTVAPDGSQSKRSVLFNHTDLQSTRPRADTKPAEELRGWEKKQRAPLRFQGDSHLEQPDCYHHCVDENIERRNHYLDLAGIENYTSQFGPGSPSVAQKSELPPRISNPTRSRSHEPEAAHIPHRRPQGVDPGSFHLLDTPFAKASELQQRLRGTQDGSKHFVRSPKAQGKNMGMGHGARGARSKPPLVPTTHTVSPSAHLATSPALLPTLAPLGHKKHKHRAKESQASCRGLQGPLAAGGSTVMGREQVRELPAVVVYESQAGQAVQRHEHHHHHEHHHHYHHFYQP

Row | binding | Substance
1 | binds | p62 (endogenous) (from UniProt Q13501 1-440)

These substances were tested against T1, Nkd1-BirA* (murine) (assay: proximity labelling; BioID with mass spectrometry; BirA* baits stably integrated in Flp-In-T-REx-293 cells, tetracycline-induced, Wnt3a-conditioned media and 50 μM biotin for 12 hr; streptavidin pull-down; hits specific if counts >5 fold over GFP-BirA*; hits may be direct binders or vicinal …).

Row | Substance | binding
2 | DVL2 (endogenous) (from UniProt O14641 1-736) | binds
3 | Axin1 (endogenous) (from UniProt O15169 1-862) | binds
4 | β-catenin (from UniProt P35222 1-781) | binds
5 | p62 (endogenous) (from UniProt Q13501 1-440) | binds

More lines, now with the values ahead:

Row | binding | Substance
6 | binds | Notch2 (from UniProt Q04721 26-2471) (receptor)
7 | binds | LRP5 (from UniProt O75197 32-1615) (receptor)
8 | binds | ROR2 (from UniProt Q01974 34-943) (receptor)
9 | binds | CELSR1 (from UniProt Q9NYQ6 21-3014) (receptor)
10 | binds | Notch1 (from UniProt P46531 19-2555) (receptor)
